Results on three sequences are retold here after PMC7848731.

Construct, isoform or probe ends are uncertain for at least one entry. For some assays here: Weaker means in comparison with the reference protein, sequence or condition of that experiment.

The target of data set [1] is T1, PrpA (UniProt A0A0U3H4C4). As to the kind of experiment: DNase I footprinting. The conditions noted are these: footprinting: 5 pmol FAM probe in 50 ul, same buffer, 25 C 2 h, recombinant protein, residues 1-86, protein details: C-terminal His, label: biotin (EMSA) or FAM (footprinting) on M13F end, probe letters rebuilt from the primers and the genome, part of a longer molecule. In general terms: A gel shift assay detects complexes by their altered migration in electrophoresis.

Data set [2] addresses T1, PrpA. As to the kind of experiment: EMSA. To be noted: EMSA: 0.1 pmol probe in 20 ul, 1x LightShift Binding buffer, 2.5% glycerol, 0.05% NP40, 50 mM added KCl, 5 mM MgCl2, 0.25 ug poly(dI:dC), 25 C 2 h, recombinant protein, residues 1-86, protein details: C-terminal His, probe letters rebuilt from the primers and the genome, part of a longer molecule.
A further data set has as its target PrpA1-54 (UniProt A0A0U3H4C4). Briefly: EMSA. The conditions noted are these: EMSA: 0.1 pmol probe in 20 ul, 1x LightShift Binding buffer, 2.5% glycerol, 0.05% NP40, 50 mM added KCl, 5 mM MgCl2, 0.25 ug poly(dI:dC), 25 C 2 h, recombinant protein, residues 1-54, protein details: C-terminal His, label: biotin (EMSA) or FAM (footprinting) on M13F end, probe letters rebuilt from the primers and the genome, part of a longer molecule.

Data set [3] addresses T1, PrpA. Briefly: competition EMSA. The conditions noted are these: displaces RepB at PrpA/RepB >= 1, not effectively at < 1; EMSA: 0.1 pmol probe in 20 ul, 1x LightShift Binding buffer, 2.5% glycerol, 0.05% NP40, 50 mM added KCl, 5 mM MgCl2, 0.25 ug poly(dI:dC), 25 C 2 h; recombinant protein; residues 1-86; protein details: C-terminal His; label: biotin (EMSA) or FAM (footprinting) on M13F end; probe letters rebuilt from the primers and the genome; part of a longer molecule.

Data set [4] relates to RepB. As to the kind of experiment: competition EMSA. To be noted: displaces PrpA at RepB/PrpA >= 1; EMSA: 0.1 pmol probe in 20 ul, 1x LightShift Binding buffer, 2.5% glycerol, 0.05% NP40, 50 mM added KCl, 5 mM MgCl2, 0.25 ug poly(dI:dC), 25 C 2 h; recombinant protein; residues 1-485; protein details: C-terminal His; label: biotin (EMSA) or FAM (footprinting) on M13F end; probe letters rebuilt from the primers and the genome; part of a longer molecule.

The subject of data set [5] is RepB. As to the kind of experiment: DNase I footprinting. The conditions noted are these: 36-bp site; footprinting: 5 pmol FAM probe in 50 ul, same buffer, 25 C 2 h; recombinant protein; residues 1-485; protein details: C-terminal His; label: biotin (EMSA) or FAM (footprinting) on M13F end; probe letters rebuilt from the primers and the genome; part of a longer molecule.

The test system of data set [6] is RepB. As to the kind of experiment: EMSA. The conditions noted are these: EMSA: 0.1 pmol probe in 20 ul, 1x LightShift Binding buffer, 2.5% glycerol, 0.05% NP40, 50 mM added KCl, 5 mM MgCl2, 0.25 ug poly(dI:dC), 25 C 2 h; recombinant protein; residues 1-485; protein details: C-terminal His; label: biotin (EMSA) or FAM (footprinting) on M13F end; probe letters rebuilt from the primers and the genome; part of a longer molecule.

The mark [7] stands for this setting: label: biotin (EMSA) or FAM (footprinting) on M13F end.

Turning to “CTTTTCAACCCGTTGTTCATTATATCGAATTTGACTTCGACTCAACCGACTTACCGGGCCACGCCGCTGATGTCCTGGCGCCCCATATTACATATCTCACCACGCATCCGAATGAGCGGATCTTAATTCAGGGCGCAGGCGACACGTCGGGTACCTTTGCCTACAATTATCAGCTGGGACTGGCGCGGGCCCGGGCAGTCATGCGTCACCTCACGGATGCCGGCATTGACGCGCAGCGCATTAAAGTCGTGTCTGTGTCTAAGGCCAATGCCCGGCAAAAATCCTACACGCGCACCGCGCACCTGGTTTACTGACGCCTCTGCGCACACCCGTCATGGTAGTTTGTAATGATATGTCTTATAATTGACCAGGTAGACCCTGACAAGAAAAGAGGCTCAGT (double strand) [prpAT promoter probe]”, the binding result with PrpA [1] (30-bp protected region), with PrpA [2] (setting [7]) and with PrpA1-54 was “binds” throughout.

Take “CTAAGGTGTAGTGTTGTACGAATAAGGTGTAGAATTTTACGGGCTAACGTGTATTTTTTTACGGGTGTACCCGAATTATTTCGTACTTTACTACACATTTAACAGTACATAGCTACACATACCCTCGTACAAACCTACACGCAAACCGTACAAAGCTACACTATAGCGCGCCGCGGGCCTACACGATGCCGTACAAAGCTACACCATAGAATTATTATATCTATACGCCCCGGGCACTTACAATTTATAGCACTAGATCGATCTGATCTATATATAGATCTTAACTAATAGATCGATCTGATCGTTATTTTGATTTATTCAAAAGCCCAATGCGTAAAATACTACACAACTCCGCATGTGCTGAACGATCAACAAAGTAAGTACGACCCCCTATTTT (double strand) [mutant ori probe (oriGC)]”: the binding result in the data set with PrpA [2] (label: biotin on M13F end) is listed as “binds more weakly”.

In the case of “CTAAGGTGTAGTGTTGTACGAATAAGGTGTAGAATTTTACGGGCTAACGTGTATTTTTTTACGGGTGTACCCGAATTATTTCGTACTTTACTACACATTTAACAGTACATAGCTACACATACCCTCGTACAAACCTACACGCAAACCGTACAAAGCTACACTATAGCGTATTACAAACCTACACGATGCCGTACAAAGCTACACCATAGAATTATTATATCTATATATTTCAAATACTTACAATTTATAGCACTAGATCGATCTGATCTATATATAGATCTTAACTAATAGATCGATCTGATCGTTATTTTGATTTATTCAAAAGCCCAATGCGTAAAATACTACACAACTCCGCATGTGCTGAACGATCAACAAAGTAAGTACGACCCCCTATTTT (double strand) [pMBL6842 ori probe]”, the binding result with PrpA [3] was “binds”; in the data set with RepB [4], “binds”; with PrpA [1] (covers iterons 1 and 2), “binds”; in the data set on RepB [5], “binds”; in the data set with PrpA [2] (setting [7]), “binds”; in the data set with PrpA1-54 (as efficient as full-length PrpA), “binds”. Also, in the data set with RepB [6], the binding result is on record as “binds”.
